Results taken from the supplement of paper PMC10849652.
Some of the results follow.

The chains behind the UniProt entries cited, without tags or fusion partners. Where a name states a change or a piece, a line headed by the entry shows the natural chain unless it says otherwise.
UniProt Q9H7C9: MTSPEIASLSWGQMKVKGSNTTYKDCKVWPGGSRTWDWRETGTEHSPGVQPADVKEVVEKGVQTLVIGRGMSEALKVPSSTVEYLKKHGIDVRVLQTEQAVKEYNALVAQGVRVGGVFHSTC
UniProt P21399: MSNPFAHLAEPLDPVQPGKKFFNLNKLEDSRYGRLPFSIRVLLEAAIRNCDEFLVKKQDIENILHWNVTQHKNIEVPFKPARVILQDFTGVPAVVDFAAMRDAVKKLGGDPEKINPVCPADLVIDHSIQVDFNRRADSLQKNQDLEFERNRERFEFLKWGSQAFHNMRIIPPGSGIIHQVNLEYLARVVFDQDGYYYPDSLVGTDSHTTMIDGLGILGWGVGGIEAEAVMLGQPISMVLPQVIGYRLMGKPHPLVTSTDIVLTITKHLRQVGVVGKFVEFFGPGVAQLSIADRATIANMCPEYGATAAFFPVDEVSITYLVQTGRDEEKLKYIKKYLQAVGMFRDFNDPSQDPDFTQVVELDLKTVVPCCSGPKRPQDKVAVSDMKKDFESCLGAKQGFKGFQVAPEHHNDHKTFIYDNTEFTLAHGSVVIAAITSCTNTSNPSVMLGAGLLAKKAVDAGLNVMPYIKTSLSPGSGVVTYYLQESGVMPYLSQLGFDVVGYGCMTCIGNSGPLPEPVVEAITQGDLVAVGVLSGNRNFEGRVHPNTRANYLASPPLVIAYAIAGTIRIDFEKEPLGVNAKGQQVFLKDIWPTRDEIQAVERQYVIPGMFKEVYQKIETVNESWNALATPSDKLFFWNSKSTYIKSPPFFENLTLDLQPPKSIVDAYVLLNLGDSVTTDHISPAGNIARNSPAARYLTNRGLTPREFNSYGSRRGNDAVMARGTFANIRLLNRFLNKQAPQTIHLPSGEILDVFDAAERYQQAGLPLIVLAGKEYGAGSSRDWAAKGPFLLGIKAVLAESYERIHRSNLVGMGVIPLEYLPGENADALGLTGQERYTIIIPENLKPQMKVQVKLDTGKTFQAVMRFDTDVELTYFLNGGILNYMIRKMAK
UniProt Q13685: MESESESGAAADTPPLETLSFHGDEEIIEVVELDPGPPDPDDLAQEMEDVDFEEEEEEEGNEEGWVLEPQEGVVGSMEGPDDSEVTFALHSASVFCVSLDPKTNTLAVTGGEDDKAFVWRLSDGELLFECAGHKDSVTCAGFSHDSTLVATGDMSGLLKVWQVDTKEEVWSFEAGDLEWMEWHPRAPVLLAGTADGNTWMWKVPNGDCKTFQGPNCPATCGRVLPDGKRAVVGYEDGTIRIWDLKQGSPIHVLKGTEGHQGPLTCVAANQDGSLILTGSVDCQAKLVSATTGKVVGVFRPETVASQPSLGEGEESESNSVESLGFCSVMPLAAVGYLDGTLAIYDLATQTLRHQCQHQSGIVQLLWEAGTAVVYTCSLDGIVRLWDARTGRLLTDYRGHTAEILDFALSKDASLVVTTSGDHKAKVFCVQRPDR
UniProt Q96IU4: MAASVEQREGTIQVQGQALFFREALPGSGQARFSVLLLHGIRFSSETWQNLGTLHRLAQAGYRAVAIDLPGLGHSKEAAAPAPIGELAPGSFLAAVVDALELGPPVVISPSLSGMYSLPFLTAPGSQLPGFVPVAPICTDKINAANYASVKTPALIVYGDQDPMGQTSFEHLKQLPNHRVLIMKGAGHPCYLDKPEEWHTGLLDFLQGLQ
UniProt Q5T8D3: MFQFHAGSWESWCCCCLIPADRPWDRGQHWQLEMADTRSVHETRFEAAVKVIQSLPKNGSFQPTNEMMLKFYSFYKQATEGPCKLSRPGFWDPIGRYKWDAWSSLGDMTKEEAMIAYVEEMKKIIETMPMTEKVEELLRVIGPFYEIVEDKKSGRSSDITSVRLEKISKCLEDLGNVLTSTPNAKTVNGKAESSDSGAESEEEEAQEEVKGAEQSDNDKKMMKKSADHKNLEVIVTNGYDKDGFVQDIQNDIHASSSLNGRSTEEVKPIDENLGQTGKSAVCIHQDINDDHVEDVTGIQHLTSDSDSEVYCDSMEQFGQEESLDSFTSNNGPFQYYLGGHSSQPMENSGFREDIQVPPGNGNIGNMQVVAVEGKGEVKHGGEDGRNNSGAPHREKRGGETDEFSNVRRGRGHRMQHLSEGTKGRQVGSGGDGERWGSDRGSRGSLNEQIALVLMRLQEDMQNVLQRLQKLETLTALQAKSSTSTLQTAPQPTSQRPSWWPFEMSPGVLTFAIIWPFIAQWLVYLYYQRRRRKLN
UniProt Q15057: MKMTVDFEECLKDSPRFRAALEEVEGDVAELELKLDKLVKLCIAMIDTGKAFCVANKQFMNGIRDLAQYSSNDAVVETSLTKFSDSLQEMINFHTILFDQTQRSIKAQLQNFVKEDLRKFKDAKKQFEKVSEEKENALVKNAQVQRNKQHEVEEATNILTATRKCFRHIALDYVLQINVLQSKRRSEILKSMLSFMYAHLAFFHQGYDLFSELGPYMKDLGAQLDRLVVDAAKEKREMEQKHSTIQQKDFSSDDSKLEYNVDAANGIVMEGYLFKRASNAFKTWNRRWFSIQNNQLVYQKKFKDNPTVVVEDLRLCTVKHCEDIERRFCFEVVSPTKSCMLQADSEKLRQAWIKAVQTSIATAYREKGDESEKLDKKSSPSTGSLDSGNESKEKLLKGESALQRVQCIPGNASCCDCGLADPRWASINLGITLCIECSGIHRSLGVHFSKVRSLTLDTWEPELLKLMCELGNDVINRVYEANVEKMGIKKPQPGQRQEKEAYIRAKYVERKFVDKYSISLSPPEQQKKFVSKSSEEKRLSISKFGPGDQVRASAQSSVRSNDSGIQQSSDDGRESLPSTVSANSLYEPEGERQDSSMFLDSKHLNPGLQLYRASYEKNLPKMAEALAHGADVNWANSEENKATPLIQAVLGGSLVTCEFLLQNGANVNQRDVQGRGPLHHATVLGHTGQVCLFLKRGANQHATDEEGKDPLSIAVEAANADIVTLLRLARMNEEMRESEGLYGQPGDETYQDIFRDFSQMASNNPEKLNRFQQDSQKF
UniProt O14678: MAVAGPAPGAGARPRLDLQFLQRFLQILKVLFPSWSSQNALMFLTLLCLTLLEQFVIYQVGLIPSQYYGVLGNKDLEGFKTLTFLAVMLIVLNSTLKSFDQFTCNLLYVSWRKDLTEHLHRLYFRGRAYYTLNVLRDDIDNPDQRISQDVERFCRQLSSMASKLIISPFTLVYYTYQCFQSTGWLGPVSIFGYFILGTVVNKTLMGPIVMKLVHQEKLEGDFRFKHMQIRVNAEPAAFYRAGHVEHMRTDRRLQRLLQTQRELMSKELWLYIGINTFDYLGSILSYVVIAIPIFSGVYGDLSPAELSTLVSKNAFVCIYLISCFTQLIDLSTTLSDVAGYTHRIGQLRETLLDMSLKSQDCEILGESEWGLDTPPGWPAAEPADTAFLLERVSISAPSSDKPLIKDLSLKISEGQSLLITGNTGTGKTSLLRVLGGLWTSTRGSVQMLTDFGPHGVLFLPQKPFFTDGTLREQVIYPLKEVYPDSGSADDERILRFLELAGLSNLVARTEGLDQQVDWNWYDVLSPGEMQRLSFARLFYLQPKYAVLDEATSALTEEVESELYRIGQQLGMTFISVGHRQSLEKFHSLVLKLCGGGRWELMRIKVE
UniProt O43707, whole entry, looked up: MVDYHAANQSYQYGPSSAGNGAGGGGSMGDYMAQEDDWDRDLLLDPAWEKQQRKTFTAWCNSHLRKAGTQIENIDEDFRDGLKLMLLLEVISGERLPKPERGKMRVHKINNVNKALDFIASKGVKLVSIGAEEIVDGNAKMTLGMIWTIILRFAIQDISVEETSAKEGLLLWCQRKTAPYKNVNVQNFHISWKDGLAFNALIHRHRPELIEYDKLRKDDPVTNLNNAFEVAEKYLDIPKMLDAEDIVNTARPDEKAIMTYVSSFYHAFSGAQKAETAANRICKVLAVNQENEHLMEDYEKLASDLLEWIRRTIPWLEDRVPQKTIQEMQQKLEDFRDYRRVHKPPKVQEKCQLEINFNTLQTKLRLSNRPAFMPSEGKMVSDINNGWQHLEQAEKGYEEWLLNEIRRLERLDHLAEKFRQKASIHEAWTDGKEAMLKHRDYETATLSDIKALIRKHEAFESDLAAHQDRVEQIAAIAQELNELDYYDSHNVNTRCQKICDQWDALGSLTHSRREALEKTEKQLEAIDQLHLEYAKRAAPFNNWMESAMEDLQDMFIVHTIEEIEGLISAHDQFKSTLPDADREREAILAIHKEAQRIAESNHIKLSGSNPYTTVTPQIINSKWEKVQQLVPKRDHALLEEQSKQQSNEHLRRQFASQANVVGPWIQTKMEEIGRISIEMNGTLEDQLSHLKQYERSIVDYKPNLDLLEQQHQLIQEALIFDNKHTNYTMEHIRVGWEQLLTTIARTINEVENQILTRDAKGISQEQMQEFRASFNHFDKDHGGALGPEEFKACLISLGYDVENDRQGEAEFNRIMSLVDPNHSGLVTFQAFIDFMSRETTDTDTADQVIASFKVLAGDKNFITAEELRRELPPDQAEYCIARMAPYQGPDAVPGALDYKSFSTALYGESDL
UniProt Q5JTZ9, whole entry, looked up: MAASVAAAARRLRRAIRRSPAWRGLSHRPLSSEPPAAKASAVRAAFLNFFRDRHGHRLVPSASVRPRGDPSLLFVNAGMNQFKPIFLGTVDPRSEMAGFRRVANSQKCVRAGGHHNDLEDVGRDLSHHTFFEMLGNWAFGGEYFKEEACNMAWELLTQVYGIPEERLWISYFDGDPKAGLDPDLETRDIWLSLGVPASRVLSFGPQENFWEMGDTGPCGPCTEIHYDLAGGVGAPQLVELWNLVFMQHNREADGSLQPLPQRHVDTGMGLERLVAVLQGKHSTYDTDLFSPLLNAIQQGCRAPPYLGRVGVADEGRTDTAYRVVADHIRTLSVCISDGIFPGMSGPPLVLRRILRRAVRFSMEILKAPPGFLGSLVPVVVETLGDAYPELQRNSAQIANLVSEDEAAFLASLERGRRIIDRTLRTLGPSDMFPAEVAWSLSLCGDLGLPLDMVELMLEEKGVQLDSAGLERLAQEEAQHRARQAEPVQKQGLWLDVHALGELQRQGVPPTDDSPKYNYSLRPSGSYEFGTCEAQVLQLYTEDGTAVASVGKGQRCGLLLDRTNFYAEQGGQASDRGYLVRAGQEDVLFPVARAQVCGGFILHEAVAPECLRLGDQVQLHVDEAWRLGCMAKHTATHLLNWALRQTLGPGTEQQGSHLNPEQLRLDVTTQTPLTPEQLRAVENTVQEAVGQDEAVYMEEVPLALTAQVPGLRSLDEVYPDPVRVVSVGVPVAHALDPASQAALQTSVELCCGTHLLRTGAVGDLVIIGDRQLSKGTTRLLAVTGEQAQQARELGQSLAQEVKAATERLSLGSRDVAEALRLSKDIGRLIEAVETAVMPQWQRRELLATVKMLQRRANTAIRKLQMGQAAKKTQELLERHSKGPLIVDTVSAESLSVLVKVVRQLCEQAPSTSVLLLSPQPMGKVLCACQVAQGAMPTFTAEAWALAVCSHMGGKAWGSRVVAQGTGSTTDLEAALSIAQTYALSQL
UniProt Q9BUJ0: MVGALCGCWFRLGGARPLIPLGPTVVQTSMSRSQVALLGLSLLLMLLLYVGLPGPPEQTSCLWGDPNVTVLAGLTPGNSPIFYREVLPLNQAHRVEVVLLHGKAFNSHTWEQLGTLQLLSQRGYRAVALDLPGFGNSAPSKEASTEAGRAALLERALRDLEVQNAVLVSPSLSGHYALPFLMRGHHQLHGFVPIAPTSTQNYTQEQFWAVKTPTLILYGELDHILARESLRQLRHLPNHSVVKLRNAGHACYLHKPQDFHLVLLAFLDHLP
UniProt P00813: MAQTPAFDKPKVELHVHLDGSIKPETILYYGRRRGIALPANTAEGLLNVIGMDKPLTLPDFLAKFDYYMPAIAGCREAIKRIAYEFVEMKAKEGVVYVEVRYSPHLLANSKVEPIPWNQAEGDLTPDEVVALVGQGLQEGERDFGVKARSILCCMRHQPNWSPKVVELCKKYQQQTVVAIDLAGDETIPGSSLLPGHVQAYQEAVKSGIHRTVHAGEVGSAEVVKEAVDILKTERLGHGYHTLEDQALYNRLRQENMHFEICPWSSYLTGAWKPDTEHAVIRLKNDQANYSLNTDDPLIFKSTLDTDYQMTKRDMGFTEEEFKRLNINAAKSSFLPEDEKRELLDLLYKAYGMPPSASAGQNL
UniProt Q9H568: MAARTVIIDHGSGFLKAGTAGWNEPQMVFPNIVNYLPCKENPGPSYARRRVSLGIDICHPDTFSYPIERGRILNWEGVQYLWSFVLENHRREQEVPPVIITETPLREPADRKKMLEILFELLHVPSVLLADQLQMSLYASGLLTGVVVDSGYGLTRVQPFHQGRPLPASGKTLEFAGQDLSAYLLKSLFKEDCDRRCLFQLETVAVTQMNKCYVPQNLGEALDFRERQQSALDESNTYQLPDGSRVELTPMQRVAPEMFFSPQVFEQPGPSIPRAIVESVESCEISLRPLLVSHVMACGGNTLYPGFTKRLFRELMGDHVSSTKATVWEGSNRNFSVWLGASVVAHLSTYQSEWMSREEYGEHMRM

Tests used:
Experiment in all cases: log2 fold change, soluble protein after heating vs DMSO (PISA); higher = thermal stabilisation; K562 cells, 10 uM, 30 min; active = over 0.2 and 3.5 SD of the protein, either way, in both replicates (recomputed)
[1] = compound: CC1=C(C=C(C=C1)NC(=O)C2=CC(=CC=C2)C(C)(C)C#N)NC3=CC4=C(C=C3)N=CN(C4=O)C
In short: (§1)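 K562 cells at 2×10^6 cells/mL were treated for 30 min with 10 μM compound, and aliquots were heated for 3 min over 48°C-58°C before pooling. Extraction used PBS with 0.5% NP-40 at 4°C, and soluble protein was the supernatant after 21,000xg for 90 min, measured by TMTpro 16plex LC-MS/MS with channel sums equalised. Thermal stability values, relative to control samples and from duplicates, are log2 fold changes.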

[2] = compound: CC1=C(C=C(C=C1)NC(=O)C2=CC(=CC=C2)N(C)C)NC(=O)C3=CC=C(C=C3)O
In short: as §1

[3] = compound: CC1=CC=C(C=C1)SC2=C3C=C(SC3=CN=C2)C(=O)N
In short: as §1

[4] = compound: CC1=NC(=CC=C1)C2=C(N=C(N2)C(C)(C)C)C3=CC4=NC=CN=C4C=C3
In short: as §1

Nexturastat A = compound: CCCCN(Cc1ccc(C(=O)NO)cc1)C(=O)Nc1ccccc1 [Nexturastat A]
In short: as §1

vemurafenib = compound: CCCS(=O)(=O)Nc1ccc(F)c(C(=O)c2c[nH]c3ncc(-c4ccc(Cl)cc4)cc23)c1F [vemurafenib]
In short: as §1

[5] = compound: CCCS(=O)(=O)Nc1ccc(F)c(C(=O)c2c[nH]c3ncc(Cl)cc23)c1F
In short: as §1

[6] = compound: CCCc1cc(C)[nH]c(=O)c1CNC(=O)c1cc(-c2ccnc(N3CCN(C)CC3)c2)cc2c1cnn2C(C)C
In short: as §1

givinostat = compound: CCN(CC)Cc1ccc2cc(COC(=O)Nc3ccc(C(=O)NO)cc3)ccc2c1 [givinostat]
In short: as §1

barasertib = compound: CCN(CCCOc1ccc2c(Nc3cc(CC(=O)Nc4cccc(F)c4)[nH]n3)ncnc2c1)CCOP(=O)(O)O [barasertib]
In short: as §1

Measured: log2 fold change

AAMDC (UniProt Q9H7C9)
inactive: [1] 0.006 | [2] -0.05 | [3] -0.003 | [4] 0.064 | Nexturastat A -0.127 | vemurafenib 0.004 | [5] 0.012 | [6] -0.074 | givinostat -0.027 | barasertib 0.011

ACO1 (UniProt P21399)
inactive: [1] -0.003 | [2] -0.003 | [3] -0.006 | [4] 0.028 | Nexturastat A -0.079 | vemurafenib 0.004 | [5] 0.034 | [6] -0.058 | givinostat -0.056 | barasertib 0.025

AAMP (UniProt Q13685)
inactive: [1] 0 | [2] -0.006 | [3] -0.028 | [4] -0.04 | Nexturastat A 0.012 | vemurafenib -0.018 | [5] 0.018 | [6] -0.041 | givinostat 0.033 | barasertib -0.006

ACOT9 isoform 4 (UniProt Q9Y305)
inactive: [1] 0.065 | [2] -0.215 | [3] -0.034 | [4] -0.03 | Nexturastat A 0.151 | vemurafenib -0.049 | [5] 0.029 | [6] 0.049 | givinostat 0.011 | barasertib -0.03

ABHD14B (UniProt Q96IU4)
inactive: [1] -0.009 | [2] -0.04 | [3] 0.042 | [4] 0.038 | Nexturastat A -0.04 | vemurafenib -0.043 | [5] 0.079 | [6] -0.051 | givinostat -0.026 | barasertib 0.016

ADAR isoform 4 (UniProt P55265)
inactive: [1] 0.081 | [2] -0.082 | [3] -0.059 | [4] -0.213 | Nexturastat A 0.146 | vemurafenib -0.162 | [5] -0.022 | [6] -0.245 | givinostat 0.112 | barasertib -0.107

ACTR1A (UniProt P61163)
inactive: [1] -0.014 | [2] -0.032 | [3] -0.013 | [4] -0.003 | Nexturastat A 0.012 | vemurafenib -0.025 | [5] -0.003 | [6] 0.002 | givinostat -0.026 | barasertib -0.032

ACBD5 (UniProt Q5T8D3)
inactive: [1] -0.085 | [2] -0.084 | [3] 0.083 | [4] 0.116 | Nexturastat A 0.132 | vemurafenib -0.082 | [5] 0.131 | [6] 0.157 | givinostat 0.363

ABCD3 (UniProt P28288)
inactive: [1] -0.022 | [2] -0.004 | [3] -0.037 | [4] 0 | Nexturastat A -0.095 | vemurafenib 0.009 | [5] -0.008 | [6] -0.008 | givinostat -0.042 | barasertib -0.016

ACOT8 (UniProt O14734)
inactive: [1] -0.058 | [2] 0.015 | [3] 0.034 | [4] -0.006 | Nexturastat A -0.103 | vemurafenib -0.026 | [5] -0.009 | [6] -0.082 | givinostat -0.01 | barasertib -0.042

ACAA1 (UniProt P09110)
inactive: [1] 0.029 | [2] 0.034 | [3] 0.013 | [4] 0.039 | Nexturastat A 0 | vemurafenib 0.017 | [5] 0 | [6] -0.01 | givinostat -0.038 | barasertib -0.022

ACSL4 (UniProt O60488)
active: [3] 0.418
inactive: [1] 0.018 | [2] -0.051 | [4] -0.002 | Nexturastat A 0.233 | vemurafenib 0.021 | [5] 0.104 | [6] 0.053 | givinostat 0.047 | barasertib 0.034

ACADSB (UniProt P45954)
inactive: [1] 0.026 | [2] -0.018 | [3] 0.005 | [4] 0.034 | Nexturastat A 0.032 | vemurafenib 0.005 | [5] 0.052 | [6] -0.007 | givinostat -0.022 | barasertib -0.014

ACTL6A (UniProt O96019)
inactive: [1] -0.005 | [2] -0.032 | [3] 0.013 | [4] -0.017 | Nexturastat A -0.036 | vemurafenib 0.017 | [5] 0.028 | [6] 0 | givinostat -0.024 | barasertib 0.014

ACAP2 (UniProt Q15057)
inactive: [1] -0.046 | [2] 0 | [3] -0.038 | [4] 0.033 | Nexturastat A 0 | vemurafenib 0.046 | [5] 0.057 | [6] -0.04 | givinostat 0.028 | barasertib 0

ACTG1 (UniProt K7EM38)
inactive: [1] 0.04 | [2] 0.079 | [3] 0.197 | [4] -0.078 | Nexturastat A -0.022 | vemurafenib 0.061 | [5] -0.602

ADAM9 (UniProt Q13443)
inactive: [1] -0.064 | [2] 0.002 | [3] 0.026 | [4] -0.036 | Nexturastat A 0.005 | vemurafenib -0.007 | [5] -0.146 | [6] -0.024 | givinostat -0.023 | barasertib 0.021

A2M (UniProt P01023)
inactive: [1] 0.016 | [2] 0.561 | [3] 0.137 | [4] 0.095 | Nexturastat A -0.095 | vemurafenib 0.09 | [5] -0.083 | [6] -0.251 | givinostat 0.007 | barasertib -0.121

Retrieved one by one from above (two):
ACO1 (UniProt P21399)
inactive: [1] -0.003 | [2] -0.003 | [3] -0.006 | [4] 0.028 | Nexturastat A -0.079 | vemurafenib 0.004 | [5] 0.034 | [6] -0.058 | givinostat -0.056 | barasertib 0.025

ABHD14B (UniProt Q96IU4)
inactive: [1] -0.009 | [2] -0.04 | [3] 0.042 | [4] 0.038 | Nexturastat A -0.04 | vemurafenib -0.043 | [5] 0.079 | [6] -0.051 | givinostat -0.026 | barasertib 0.016

Going on with the list:

ABCD4 (UniProt O14678)
inactive: [1] 0.001 | [2] 0.107 | [3] -0.023 | [4] 0.012 | Nexturastat A -0.048 | vemurafenib 0.038 | [5] -0.087 | [6] 0.065 | givinostat 0 | barasertib 0.14

ACADL (UniProt P28330)
inactive: [1] 0.151

ACP1 isoform 2 (UniProt P24666)
inactive: [1] 0.008 | [2] -0.013 | [3] 0.025 | [4] -0.008 | Nexturastat A 0.08 | vemurafenib 0.031 | [5] 0.026 | [6] 0.043 | givinostat 0.058 | barasertib 0.074

ABCC4 (UniProt O15439)
inactive: [1] 0.011 | [2] -0.016 | [3] -0.01 | [4] 0.016 | Nexturastat A -0.025 | vemurafenib -0.002 | [5] -0.002 | [6] -0.015 | givinostat -0.017 | barasertib 0.005

ACSL5 isoform 3 (UniProt Q9ULC5)
inactive: [1] 0.106 | [2] 0.061 | [3] -0.025 | [4] 0.088 | Nexturastat A -0.009 | vemurafenib 0.001 | [5] 0.083 | [6] -0.019 | givinostat -0.023 | barasertib 0.013

ACTR1B (UniProt P42025)
inactive: [1] -0.056 | [2] -0.124 | [3] 0.001 | [4] -0.003 | Nexturastat A -0.134 | vemurafenib -0.029 | [5] -0.022 | [6] -0.009 | givinostat 0.006 | barasertib 0.031

ACTN4 (UniProt O43707)
inactive: [1] -0.013 | [2] 0.039 | [3] -0.01 | [4] 0.006 | Nexturastat A -0.005 | vemurafenib -0.008 | [5] -0.006 | [6] -0.041 | givinostat -0.011 | barasertib -0.026

AARS2 (UniProt Q5JTZ9)
inactive: [1] -0.003 | [2] -0.047 | [3] 0.017 | [4] 0.079 | Nexturastat A -0.015 | vemurafenib 0.045 | [5] 0.04 | [6] 0.049 | givinostat 0.05 | barasertib 0.058

ADCK1 (UniProt Q86TW2)
inactive: [1] -0.023 | [2] 0.003 | [3] -0.008 | [4] -0.034 | Nexturastat A -0.063 | vemurafenib 0.01 | [5] -0.05 | [6] -0.078 | givinostat -0.024

ABHD14A (UniProt Q9BUJ0)
inactive: [1] -0.153

ADA (UniProt P00813)
inactive: [1] -0.016 | [2] -0.037 | [3] -0.071 | [4] -0.015 | Nexturastat A -0.053 | vemurafenib 0.034 | [5] -0.089 | [6] 0.021 | givinostat 0.031 | barasertib 0.026

ACSF3 (UniProt Q4G176)
inactive: [1] -0.002 | [2] 0.038 | [3] 0.007 | [4] 0.023 | Nexturastat A -0.005 | vemurafenib 0.029 | [5] 0.003 | [6] 0.008 | givinostat -0.022 | barasertib 0.051

ADAMTSL4 isoform 3 (UniProt Q6UY14)
inactive: [1] -0.103 | [2] -0.027 | [3] -0.048 | [4] -0.163 | Nexturastat A 0.153 | vemurafenib -0.203 | [5] -0.085 | [6] 0.013 | givinostat 0.036 | barasertib 0.006

ACTL8 (UniProt Q9H568)
inactive: [1] -0.031 | [2] -0.029 | [3] -0.021 | [4] -0.076 | Nexturastat A -0.203 | vemurafenib -0.081 | [5] -0.054 | [6] -0.005 | givinostat -0.005 | barasertib -0.006
